Test results taken from patent publication US20080207488A1, “Method for Detecting Peptides Comprising a Cross-B Structure” (priority 2005, published 2008).
Part of at least one peptide drawing is inferred or uncertain, most often the ends. Peptide text beside a SMILES is read from it.

Biological target: T1, factor XII (Homo sapiens, UniProt P00748)
T1 construct: purchased Calbiochem, EMD Biosciences #233490
T1 sequence (P00748 20-615): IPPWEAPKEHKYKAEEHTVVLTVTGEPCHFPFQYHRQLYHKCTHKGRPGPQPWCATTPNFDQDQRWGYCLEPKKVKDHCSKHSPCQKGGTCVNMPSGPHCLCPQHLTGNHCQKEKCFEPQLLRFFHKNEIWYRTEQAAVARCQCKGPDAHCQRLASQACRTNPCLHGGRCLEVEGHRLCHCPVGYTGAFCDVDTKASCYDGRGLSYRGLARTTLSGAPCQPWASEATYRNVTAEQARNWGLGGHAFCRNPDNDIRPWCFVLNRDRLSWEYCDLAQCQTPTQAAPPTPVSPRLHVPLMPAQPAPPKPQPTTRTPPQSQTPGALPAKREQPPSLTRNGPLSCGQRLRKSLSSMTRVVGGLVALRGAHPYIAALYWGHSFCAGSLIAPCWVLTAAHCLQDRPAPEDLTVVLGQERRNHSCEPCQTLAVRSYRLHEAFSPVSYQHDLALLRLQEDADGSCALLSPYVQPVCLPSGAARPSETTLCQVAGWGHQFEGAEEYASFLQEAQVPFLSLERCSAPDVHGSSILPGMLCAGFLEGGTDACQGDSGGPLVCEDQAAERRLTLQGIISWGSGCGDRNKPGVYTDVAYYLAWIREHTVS
Experiment: Chromogenic factor XII/prekallikrein activation assay (Chromozym-PK)
Format: biochemical
Conditions: peptide aggregates and surfaces
Procedure: Plasmin (Pls) activity was assayed as described^7. Peptides and proteins that were tested for their stimulatory ability were regularly used at 100 μg ml^−1. […] Chromogenic substrate S-2251 (Chromogenix, Instrumentation Laboratory SpA, Milano, Italy) was used to measure Pls activity. Conversion of zymogen factor XII (#233490, Calbiochem, EMD Biosciences, Inc., San Diego, Calif.) to proteolytically active factor XII (factor XIIa) was assayed by measurement of the conversion of chromogenic substrate Chromozym-PK (Roche Diagnostics, Almere, The Netherlands) by kallikrein. Chromozym-PK was used at a concentration of 0.3 mM. […] The conversion of Chromozym-PK was recorded kinetically at 37° C. for at least 60 minutes. […] With S-2222, activation of factor XII in plasma was measured, using 60% v/v plasma, diluted with substrate and H2O with or without potential cofactor. Furthermore, auto-activation of factor XII was measured by incubating 53 μg ml^−1 purified factor XII in 50 mM Tris-HCl buffer pH 7.5 with 1 mM EDTA and 0.001% v/v Triton-X100, with S-2222 and H2O with or without potential cofactor.
Formulated protein therapeutics were obtained from the local hospital pharmacy and were used as supplied by the manufacturers. […] Enhancement in fluorescence of ThT and Congo red was measured with all formulated protein therapeutics. […]

## CC[C@H](C)[C@H](NC(=O)[C@H](CC(=O)O)NC(=O)[C@@H](NC(=O)[C@H](CC(=O)O)NC(=O)[C@@H](NC(=O)[C@H](CCC(=O)O)NC(=O)[C@H](CC(C)C)NC(=O)[C@H](CCCNC(=N)N)NC(=O)[C@@H](N)CCCCN)C(C)C)[C@@H](C)CC)C(=O)N[C@@H](CCCCN)C(=O)O [FP10] (H-KRLEVDIDIK-OH)
  factor XII activation (kallikrein, Chromozym-PK conversion): do not activate factor XII
